19 molecules from US20240327540A1 can be followed below.

Sequences of proteins named here, by UniProt entry; tags and fusion partners are left off. A change or cut given only in a name is not applied to a line headed by its entry.
UniProt Q9UNK4: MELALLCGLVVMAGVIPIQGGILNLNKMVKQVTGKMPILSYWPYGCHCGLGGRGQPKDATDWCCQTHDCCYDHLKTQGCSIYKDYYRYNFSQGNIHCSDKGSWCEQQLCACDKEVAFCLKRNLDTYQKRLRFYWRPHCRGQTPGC

Test [1] concerns the target human PLA2G2D (human) (UniProt Q9UNK4). As to the kind of experiment: assay not given.
The target is the same in test [2]. The test can be described thus: ELISA / flow cytometry screening of hybridoma antibodies. For orientation: In an ELISA, binding on a coated surface is turned into a signal by an enzyme label.

Results are given in words; binding and its absence hold for the method and conditions named. Some binding calls cover weakened binding; strength is not graded here.

B1: 48.25B3.A6 (antibody, V domains shown)
VH: QVQLKESGPGLVQPSQTLSLTCTVSGFSLTSYHVHWVRQPPGKGLEWMGVMWSDGDTSHKSALKSRLSISRDTSKSQVFLKMNSLQTEDTATYYCARDSSTEGIPFDYWGQGAMVTVSS
VL: DIVLTQSPALAVSLGQRATISCRASQSVSMSRFYLMHWYQQKPGQQPKVLIYRASNLASGIPARFSGSGSGTDFTLTINPVQADDIATYYCQQTRESPRTFGGGTKLELK
On to B1, for which the binding entry with human PLA2G2D (human) [1] and with human PLA2G2D (human) [2] was “binds” each time.

B2: 44.93D1.E7 (antibody, V domains shown)
VH: QVQLQQSGAELVRPGASVTLSCKASGYTFTDYDMHWVKQTPVHGLEWIGAIDPETGGTTYNQKFKGKAILTADKSSSTAYMELRSLTSEDSAVYYCTRLAWFAYWGQGTLVTVSA
VL: ETTVTQSPASLSMAVGEKVTIRCITSTDIDDDMNWFHQKPGEPPKLLISEGNTLRPGVPSRFSSSGYGTDFVFTIENMLSEDVADYYCLQSDNLPLTFGAGTKLELK
With B2, the binding result with human PLA2G2D (human) [1] and with human PLA2G2D (human) [2] was “binds” throughout.

B3: 47.17B2 (antibody, V domains shown)
VH: QVTLKESGPGILQSSQTLSLTCSFSGFSLNTSPLGVSWIRQPSGKGLEWLAHIYWDDDKRYNPSLQNRLTISKDTSRNQVFLKISSVDTADTATYYCARRDGSNFYFDYWGQGTTLTVSS
VL: QIVLTQSPAIMSASPGEKVTISCSASSTVRYIYWYYQKPGSSPTPWIYRTSNLAFGVPARFSGSGSGTSYSLTISSMEAEDAATYYCQQYHSFPLTFGAGTKLELK
Take B3: the binding result in the test with human PLA2G2D (human) [1] and with human PLA2G2D (human) [2] was “binds” each time.

B4: 48.60E11.A7 (antibody, V domains shown)
VH: QVQLKESGPGLVQPSQTLSLTCTASGFSLTTNGVSWVRQPPGKGLEWIAAISSGGSTYYNSALKTRLSISRDTSKSQVFLKMNSLQTKDTAIYFCTSAGGNRFAYWGQGTLVTVSS
VL: SYELIQPPSASVTLENTVSITCSGDELSNKYTHWFQQKPDKTILEVMYKDSERPSGISDRFSGSSSGTTAILTIRDAQAEDEADYYCLSSYTDDDILVFGGGTKLTVL
Turning to B4, the binding entry with human PLA2G2D (human) [1] and with human PLA2G2D (human) [2] was “binds” each time.

B5: 48.55A7.A10 (antibody, V domains shown)
VH: EVQLVESGGGLVQPGRSLKLSCAASGFSFNDYNMAWVRQAPTKGLEWVASISTGGANTYCRDSVKGRFTLSRDNAKNTLYLQMDSLKSEDTATYYCARHDTIRVDAWGQGASVTVSS
VL: SYELIQPPSASVTLENTVSITCSGDELSNKYAHWYQQKPDKTILEVMYKDSERPSGISDRFSGSSSGTTAILTIRDAQAEDEADYYCLSTYSDDDLPVFGGGTKLTVL
Consider B5, for which the binding result with human PLA2G2D (human) [1] and with human PLA2G2D (human) [2] was “binds” in each case.

B6: 48.4B12.F8 (antibody, V domains shown)
VH: QVQLKESGPGLVQPSQTLSLTCTVSGFSLTNNGVSWVRQPPGKGLEWIAAISSGGSTYYNSDLKSRLSIGRDTSKSQVFLEMNSLQTEDTAIYFCTRVGDDRFDYWGQGVMVTVSS
VL: SYELIQPPSASVTLENTVSITCSGDELSNKYVHWYQQKPDKTILEVMYKDSERPSGISDRFSGSSSGTTAILTIRDAQAEDAADYYCLSTYCDDDLPVFGGGTKLTVL
Consider B6, for which the binding entry with human PLA2G2D (human) [1] and with human PLA2G2D (human) [2] was “binds” throughout.

B7: 48.9C4.E4 (antibody, V domains shown)
VH: EVRLVESGGGLVQPGRSLKLSCAASGFTFNDYNMAWVRHPPTKGLEWVASISTGGDNTYCRDSVKGRFTLSRDNAKNTLYLQMDSLKSEDTATYYCVRHDTIRVDAWGQGASVTVSS
VL: SYELIQPPSASVTLENTVSITCSGDELSNKYAHWYQQKPDKTILEVMYKDSERPSGISDRFSGSSSGTTAILTIRDAQAEDEADYYCLSTYSDDDLPVFGGGTKLTVL
As for B7, the binding result in the test with human PLA2G2D (human) [1] and with human PLA2G2D (human) [2] was “binds” throughout.

B8: 44.20H2.A8 (antibody, V domains shown)
VH: QVTLKESGPGILQSSQTLSLTCSFSGFSLNTSGMAVSWIRQSSGKGLEWLAHIYWDDDKRYNPSLKSRLTISKDISRNQVFLKITSVDTADTATYFCARREGDWYFDVWGTGTTVTVSS
VL: QIVLTQSPAIMSASPGEMVTISCSASSRISYMYWYQQKPGSSPKPWIFRTSNLASGVPTRFSGSGSGTSYSLTISSMEAEDAATYYCQQYHTSPLTFGAGTKLELK
Consider B8, for which the binding entry with human PLA2G2D (human) [1] and with human PLA2G2D (human) [2] was “binds” throughout.

B9: 44.110G5.B6 (antibody, V domains shown)
VH: QVTLKESGPGILQSSQTLSLTCSFSGFSLSTSGLGVSWIRQPSGKGLEWLAHIYWDDDKRYNPSLKSRLTISKDTSRNQVFLKITSVDTADTATYYCARRRSLYFYFDVWGTGTTVTVSS
VL: QIVLTQSPTIMSASPGEKVTISCSAISSVSYMYWYQQKPGSSPKPWIYRTSNLASGVPARFSGSGSGTSYSLTISSMEAEDAATYYCQQYHSYPPTFGSGTKLEIK
As for B9, the binding result with human PLA2G2D (human) [1] and with human PLA2G2D (human) [2] was “binds” in each case.

B10: 44.92F6.C9 (antibody, V domains shown)
VH: QVTLKESGPGILQSSQTLSLTCSFSGFSLSTSPMGVSWIRQPSGKGLEWLAHIYWDDDKRYNPSLKSRLTISRDTSRNQVFLKITTVDTADTATYFCARRRGDSFYFDYWGQGTTLTVSS
VL: QIVLTQSPAIMSASPGEKVTISCSASSSVSYMYWYQQKPGSSPKPWIYRTSNLASGVPARFSGSGSGTSYSLTISSMEAEDAATYYCQQYHSYPLTFGAGTKLELK
With B10, the binding entry with human PLA2G2D (human) [1] and with human PLA2G2D (human) [2] was “binds” throughout.

B11: 44.7A3.E10 (antibody, V domains shown)
VH: QVTLKESGPGILQSSQTLSLTCSFSGFSLSTSGMGVAWIRRPSGKGLEWLAHIYWDDDKRYNPSLKSRLTISKDTSRNQVFLKITSVDTADTATYYCARRGPGTWYFDVWGTGTTVTVSS
VL: QIVLTQSPAIMSASPGEKVTISCSASSSVSYMYWYQQKPGSSPKPWIYRTSNLASGVPARFSGSGSGTSYSLTISSMEAEDAATYYCQQYHSSPLTFGAGTKLELK
As to B11, the binding entry with human PLA2G2D (human) [1] and with human PLA2G2D (human) [2] was “binds” throughout.

B12: 44.19A6.A10 (antibody, V domains shown)
VH: QVTLKESGPGILQSSQTLSLTCSFSGFSLTTSGMGVGWIRQPSGKGLEWLAHIYWDDDKRYNPSLKSRLTISKDTSRNQVFLKITSVDTTDTATYYCARRGPGTWYFDVWGTGTTVTVSS
VL: QIVLTQSPAIMSASPGEKVTISCSASSSVSYMYWYQQKPGSSPKPWIYRTSNLASGVPARFSGSGSGTSYSLTISSMEAEDAAAYYCQQYHSSPLTFGAGTKLELK
In the case of B12, the binding result with human PLA2G2D (human) [1] and with human PLA2G2D (human) [2] was “binds” in each case.

B13: 44.7F10.F2 (antibody, V domains shown)
VH: QVTLKESGPGILQSSQTLSLTCSFSGFSLSTSGMGVSWIRQPSGKGLEWLTHIYWDDDKRYNPSLKSRLTISKDTSRNQVFLKITSVDTADTATYYCARRAVKDWYFDVWGTGTTVTVSS
VL: QIVLTQSPAIMSASPGEKVTISCSASSSVSYMYWYQQKPGSSPKPWIYRTSNLASGVPARFSGSGSGTSYSLTISSMEAEDAATYYCQQYHSYPPTFGSGTKLEIK
Regarding B13, the binding result in the test with human PLA2G2D (human) [1] and in the test with human PLA2G2D (human) [2] was “binds” throughout.

B14: 44.96D4.C4 (antibody, V domains shown)
VH: QVTLKESGPGILQSSQTLSLTCSFSGFSLSTSGMGVSWIRQPSGKGLEWLAHIYWDDDKRYNPSLKSRLSISKDTSRNQVFLKITSVDTVDTATYYCARRESKYFYFDYWGQGTTLTVSS
VL: QIVLTQSPSIMSASPGEKVTISCSASSSVSYMYWYQQKPGSSPKPWIYRTSNLASGVPARFSGSGSGTSYSLTISSMEAEDAATYYCQQYHSYPPTFGSGTKLEIK
Consider B14, for which the binding entry with human PLA2G2D (human) [1] and in the test with human PLA2G2D (human) [2] was “binds” each time.

B15: 44.102H3.E12 (antibody, V domains shown)
VH: QVTLKESGPGILQSSQTLSLTCSFSGFSLSTSGMGVSWIRQPSGKGLEWLAHIYWDDDKRYNPSLKSRLTISKDTSRNQVFLKITNVDTADTATYFCARRASVDFYFDYWGQGSNLTVSS
VL: QIVLTQSPAIMSASPGEKVTISCSAGSSVSFMYWYQQKPGSSPKPWIYRTSNLASGVPARFSGSGSGTSYSLTISSMEAEDAATYYCQHYHSYPPTFGGGTKLEIK
Consider B15, for which the binding result with human PLA2G2D (human) [1] and with human PLA2G2D (human) [2] was “binds” each time.

B16: 44.101H5.B4 (antibody, V domains shown)
VH: QVTLKESGPGILQSSQTLSLTCSLSGFSLSTSGMGVSWIRQPSGKGLEWLAHIYWDDDKRYNPSLKSRLTISKDTSRNQVFLKITSVDTADTATYYCARRESRYFYFDYWGQGATLTVSS
VL: QIVLTQSPAIMSASPGEKVTISCSASSSVSYMYWYQQKPGSSPKPWIFRTSNLASGVPARFSGSGSGTSYSLTISSMEAEDAATYYCQQYHSYPPTFGSGTKLEIK
Consider B16, for which the binding result in the test with human PLA2G2D (human) [1] and with human PLA2G2D (human) [2] was “binds” throughout.

B17: 44.25D8.D4 (antibody, V domains shown)
VH: QVTLKESGPGILQSSQTLSLTCSFSGFSLSTSGMAVSWIRQPSGKGLEWLAHIYWDDDKRYNPSLKSRLTISKDTSRNQVFLKITSVDTTDTATYYCARRGPGTWYFDVWGTGTTVTVSS
VL: QIVLTQSPAIMSASPGEKVTISCSASSSVVYMYWYQQQPGSSPKPWIYRTSNLASGVPARFSGSGSGTSYSLTISSMEAEDAATYYCQQYHSSPLTFGAGTKLELK
As to B17, the binding entry in the test with human PLA2G2D (human) [1] and with human PLA2G2D (human) [2] was “binds” each time.

B18: 47.17G1.E12 (antibody, V domains shown)
VH: QVTLKESGPGILQSSQTLSLTCSFSGFSLSTSRMGVSWIRQPSRKGLEWLAHIYWDDDKRYNPSLKSRLTISKDTSRNQVFLRINNVDTADTATYYCARRALYDYGADFYFDVWGTGTTVTVSS
VL: QIVLTQSPAIMSAFPGEKVTISCSASSSVSYMYWYQQKPGSSPKPWIYRTSNLASGVPARFSGSGSGTSYSLTISSMEAEDAATYYCQQYHTYPLTFGAGTKLELK
Take B18: the binding entry with human PLA2G2D (human) [1] and with human PLA2G2D (human) [2] was “binds” throughout.

B19: 44.8A6.A9 (antibody, V domains shown)
VH: QVILKESGPGILQSSQTLSLTCSFSGFSLSTSGMGVSWIRQPSGKGLEWLAHIYWDDDKRYNPSLKSRLTISKDTSRNQVFLKVTSVDTTDTATYYCARRASGDYSNFGFAYWGRGTLVTVSA
VL: QIVLTQSPAIMSASPGEKVTISCSASSSVSYMYWYQQKPGSSPKPWIYRTSILASGVPARFSGSGSGTSYSLTISSMEAEDAATYYCQQYHSYPPTFGGGTKLEIK
As to B19, the binding result in the test with human PLA2G2D (human) [1] and with human PLA2G2D (human) [2] was “binds” in each case.
